Some results were stated once for a whole list of compounds, not compound by compound.
What was measured:
Type in all cases: in vivo
[1] = test system: Diamond Back Moth (Plutella Xylostella); test: Diamond back moth (Plutella xylostella), cabbage leaf dip, 3rd instar larvae; conditions: 500 ppm, 72 hours after treatment
Experimental: B.6 Diamond Back Moth (Plutella Xylostella)
The active compound was dissolved at the desired concentration in a mixture of 1:1 (vol:vol) distilled water:aceteone. Surfactant (Kinetic HV) was added at a rate of 0.01% (vol/vol). The test solution was prepared at the day of use.
Leaves of cabbage were dipped in test solution and air-dried. Treated leaves were placed in petri dishes lined with moist filter paper and inoculated with ten 3rd instar larvae. Mortality was recorded 72 hours after treatment. Feeding damages were also recorded using a scale of 0-100%.

[2] = test system: boll weevil (Anthonomus grandis); test: Boll weevil (Anthonomus grandis), insect diet with eggs in 24-well plates; conditions: 2500 ppm; egg and larval mortality; 5 days
Experimental: B.4 Boll Weevil (Anthonomus grandis)
For evaluating control of boll weevil (Anthonomus grandis) the test unit consisted of 24-well-microtiter plates containing an insect diet and 20-30 A. grandis eggs.
The compounds were formulated using a solution containing 75% v/v water and 25% v/v DMSO. Different concentrations of formulated compounds were sprayed onto the insect diet at 20 μl, using a custom built micro atomizer, at two replications.
After application, microtiter plates were incubated at about 23±1° C. and about 50±5% relative humidity for 5 days. Egg and larval mortality was then visually assessed.

[3] = test system: tobacco budworm (Heliothis virescens); test: Tobacco budworm (Heliothis virescens), insect diet with eggs in 96-well plates; conditions: 2500 ppm; egg and larval mortality; 5 days
Experimental: B.3 Tobacco Budworm (Heliothis virescens)
For evaluating control of tobacco budworm (Heliothis virescens) the test unit consisted of 96-well-microtiter plates containing an insect diet and 15-25 H. virescens eggs.
The compounds were formulated using a solution containing 75% v/v water and 25% v/v DMSO. Different concentrations of formulated compounds were sprayed onto the insect diet at 10 μl, using a custom built micro atomizer, at two replications.
(§1) After application, microtiter plates were incubated at about 28±1° C. and about 80±5% relative humidity for 5 days. Egg and larval mortality was then visually assessed.

[4] = test system: vetch aphid (Megoura viciae); test: Vetch aphid (Megoura viciae), contact or systemic, broad bean leaf disks in 24-well plates; conditions: 2500 ppm; adult aphids on sprayed leaf disks; 5 days
Experimental: B.2 Vetch Aphid (Megoura viciae)
For evaluating control of vetch aphid (Megoura viciae) through contact or systemic means the test unit consisted of 24-well-microtiter plates containing broad bean leaf disks.
The compounds were formulated using a solution containing 75% v/v water and 25% v/v DMSO. Different concentrations of formulated compounds were sprayed onto the leaf disks at 2.5 μl, using a custom built micro atomizer, at two replications.
After application, the leaf disks were air-dried and 5-8 adult aphids placed on the leaf disks inside the microtiter plate wells. The aphids were then allowed to suck on the treated leaf disks and incubated at about 23±1° C. and about 50±5% relative humidity for 5 days. Aphid mortality and fecundity was then visually assessed.

[5] = test system: Mediterranean fruitfly (Ceratitis capitata); test: Mediterranean fruitfly (Ceratitis capitata), insect diet with eggs in microtiter plates; conditions: 2500 ppm; egg and larval mortality; 5 days
Experimental: B.5 Mediterranean Fruitfly (Ceratitis capitata)
For evaluating control of Mediterranean fruitfly (Ceratitis capitata) the test unit consisted of microtiter plates containing an insect diet and 50-80 C. capitata eggs.
The compounds were formulated using a solution containing 75% v/v water and 25% v/v DMSO. Different concentrations of formulated compounds were sprayed onto the insect diet at 5 μl, using a custom built micro atomizer, at two replications.
as §1

[6] = test system: green peach aphid (Myzus persicae); test: Green peach aphid (Myzus persicae), systemic, 96-well plates with liquid artificial diet under membrane; conditions: 2500 ppm; adult aphids on treated diet; 3 days
Excerpt: B.1 Green Peach Aphid (Myzus persicae)
For evaluating control of green peach aphid (Myzus persicae) through systemic means the test unit consisted of 96-well-microtiter plates containing liquid artificial diet under an artificial membrane.
The compounds were formulated using a solution containing 75% v/v water and 25% v/v DMSO. Different concentrations of formulated compounds were pipetted into the aphid diet, using a custom built pipetter, at two replications.
After application, 5-8 adult aphids were placed on the artificial membrane inside the microtiter plate wells. The aphids were then allowed to suck on the treated aphid diet and incubated at about 23±1° C. and about 50±5% relative humidity for 3 days. Aphid mortality and fecundity was then visually assessed.

[7] = test system: Orchid Thrips (Dichromothrips Corbetti); test: Orchid thrips (Dichromothrips corbetti), floral-immersion technique; conditions: 500 ppm; adult thrips; 72 hours after treatment
Experimental: B.7 Orchid Thrips (Dichromothrips Corbetti)
Dichromothrips corbetti adults used for bioassay were obtained from a colony maintained continuously under laboratory conditions. For testing purposes, the test compound was diluted in a 1:1 mixture of acetone:water (vol:vol), plus Kinetic HV at a rate of 0.01% v/v.
Thrips potency of each compound was evaluated by using a floral-immersion technique. All petals of individual, intact orchid flowers were dipped into treatment solution and allowed to dry in Petri dishes. Treated petals were placed into individual re-sealable plastic along with about 20 adult thrips. All test arenas were held under continuous light and a temperature of about 28° C. for duration of the assay. After 3 days, the numbers of live thrips were counted on each petal. The percent mortality was recorded 72 hours after treatment.

[8] = test system: Rice Green Leafhopper (Nephotettix virescens); test: Rice green leafhopper (Nephotettix virescens), sprayed potted rice seedlings; conditions: 500 ppm; adults; after 72 hours
Experimental: B.8 Rice Green Leafhopper (Nephotettix virescens)
Rice seedlings were cleaned and washed 24 hours before spraying. The active compounds were formulated in 1:1 acetone:water (vol:vol), and 0.01% vol/vol surfactant (Kinetic HV) was added. Potted rice seedlings were sprayed with 5-6 ml test solution, air dried, covered with Mylar cages and inoculated with 10 adults. Treated rice plants were kept at about 28-29° C. and relative humidity of about 50-60%. Percent mortality was recorded after 72 hours.

Measured: mortality in comparison with untreated controls

O=C(CNC(=O)c1ccc(C2=CC(c3cc(Cl)cc(Cl)c3)(C(F)(F)F)CC2)cc1Cl)NCC(F)(F)F (stereo not shown) [Compound 1-1]
at least 75%: all assays above

O=C(NCc1ccccn1)c1ccc(C2=CC(c3cc(Cl)cc(Cl)c3)(C(F)(F)F)CC2)cc1Cl (stereo not shown) [Compound 1-2]
at least 75%: all assays above

C#CCNC(=O)c1ccc(C2=CC(c3cc(Cl)cc(Cl)c3)(C(F)(F)F)CC2)cc1Cl (stereo not shown) [Compound 1-6]
not listed: [8]
at least 75%: all other assays above

NC(=O)c1ccc(C2=CC(c3cc(Cl)cc(Cl)c3)(C(F)(F)F)CC2)cc1Cl (stereo not shown) [Compound 1-9]
not listed: [7] | [8]
at least 75%: all other assays above

O=C(NCC(F)(F)F)c1ccc(C2=CC(c3cc(Cl)cc(Cl)c3)(C(F)(F)F)C=C2)cc1Cl (stereo not shown) [Compound 2-1]
not listed: [8]
at least 75%: all other assays above

C#CCNC(=O)c1ccc(C2=CC(c3cc(Cl)cc(Cl)c3)(C(F)(F)F)C=C2)cc1Cl (stereo not shown) [Compound 2-2]
not listed: [8]
at least 75%: all other assays above

O=C(NCC1CC1)c1ccc(C2=CC(c3cc(Cl)cc(Cl)c3)(C(F)(F)F)C=C2)cc1Cl (stereo not shown) [Compound 2-3]
not listed: [8]
at least 75%: all other assays above

C=CCNC(=O)c1ccc(C2=CC(c3cc(Cl)cc(Cl)c3)(C(F)(F)F)C=C2)cc1Cl (stereo not shown) [Compound 2-7]
not listed: [8]
at least 75%: all other assays above

NC(=O)c1ccc(C2=CC(c3cc(Cl)cc(Cl)c3)(C(F)(F)F)C=C2)cc1Cl (stereo not shown) [Compound 2-9]
not listed: [8]
at least 75%: all other assays above

O=C(NC1CC1)c1ccc(C2=CC(c3cc(Cl)cc(Cl)c3)(C(F)(F)F)C=C2)cc1Cl (stereo not shown) [Compound 2-10]
not listed: [5]
at least 75%: all other assays above

O=C(NCc1ccccn1)c1ccc(C2=CCC(c3cc(Cl)cc(Cl)c3)(C(F)(F)F)C2)cc1Cl (stereo not shown) [Compound 3-1]
not listed: [8]
at least 75%: all other assays above

NC(=O)c1ccc(C2=CCC(c3cc(Cl)cc(Cl)c3)(C(F)(F)F)C2)cc1Cl (stereo not shown) [Compound 3-4]
at least 75%: [1] | [2] | [3] | [4] | [5]

O=C(CNC(=O)c1ccc(C2=CCC(c3cc(Cl)cc(Cl)c3)(C(F)(F)F)C2)cc1Cl)NCC(F)(F)F (stereo not shown) [Compound 3-8]
not listed: [8]
at least 75%: all other assays above

O=C(NCC1CC1)c1ccc(C2=CCC(c3cc(Cl)cc(Cl)c3)(C(F)(F)F)C2)cc1Cl (stereo not shown) [Compound 3-10]
not listed: [8]
at least 75%: all other assays above

Reference: patent US10407383B2, “Cyclopentene and cyclopentadiene compounds for controlling invertebrate pests” (BASF SE, priority 2014, dated 2019)
